Laboratory results as given in publication PMC7499204.
Results are given in words; binding and its absence hold for the method and conditions named. In cells and extracts the contact can be indirect. Some results given as binding are weak or reduced against the parent protein; the word gives no strength. Sequences can lack the tags named with a protein.

Sequences of proteins named here, by UniProt entry; tags and fusion partners are left off.
UniProt Q86TM6: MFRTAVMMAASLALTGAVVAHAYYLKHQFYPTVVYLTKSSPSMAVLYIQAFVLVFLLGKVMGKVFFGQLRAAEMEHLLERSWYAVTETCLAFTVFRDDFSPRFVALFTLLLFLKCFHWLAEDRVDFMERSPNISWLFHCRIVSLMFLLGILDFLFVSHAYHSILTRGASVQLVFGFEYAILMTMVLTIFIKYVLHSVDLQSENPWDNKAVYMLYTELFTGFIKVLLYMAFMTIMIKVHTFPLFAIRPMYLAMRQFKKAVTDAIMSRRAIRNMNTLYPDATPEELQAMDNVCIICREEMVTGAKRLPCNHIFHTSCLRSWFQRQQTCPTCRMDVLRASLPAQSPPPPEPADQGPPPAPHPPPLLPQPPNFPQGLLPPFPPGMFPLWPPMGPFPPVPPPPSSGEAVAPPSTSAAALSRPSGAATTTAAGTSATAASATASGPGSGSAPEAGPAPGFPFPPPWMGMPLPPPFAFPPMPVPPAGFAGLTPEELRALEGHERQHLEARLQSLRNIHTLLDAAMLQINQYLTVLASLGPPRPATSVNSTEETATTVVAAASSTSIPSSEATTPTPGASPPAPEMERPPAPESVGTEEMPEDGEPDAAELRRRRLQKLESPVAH
UniProt Q7Z434: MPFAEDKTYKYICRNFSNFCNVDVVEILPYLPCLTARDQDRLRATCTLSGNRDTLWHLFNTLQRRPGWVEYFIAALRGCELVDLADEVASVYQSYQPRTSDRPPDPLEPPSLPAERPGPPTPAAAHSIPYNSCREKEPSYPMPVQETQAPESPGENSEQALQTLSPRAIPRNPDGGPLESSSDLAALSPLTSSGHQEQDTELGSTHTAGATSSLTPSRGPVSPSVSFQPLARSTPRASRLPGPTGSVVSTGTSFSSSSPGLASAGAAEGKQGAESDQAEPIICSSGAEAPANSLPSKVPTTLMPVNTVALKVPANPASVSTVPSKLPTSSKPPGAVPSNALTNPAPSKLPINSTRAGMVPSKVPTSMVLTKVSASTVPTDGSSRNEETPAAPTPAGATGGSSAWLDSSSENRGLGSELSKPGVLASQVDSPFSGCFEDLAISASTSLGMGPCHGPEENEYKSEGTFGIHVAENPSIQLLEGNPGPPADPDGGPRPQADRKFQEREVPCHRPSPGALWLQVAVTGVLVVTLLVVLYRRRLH

Experiments:
[1] = biological target: Myc-tagged SYVN1, full length (pcDNA3.1-SYVN1-myc) (UniProt Q86TM6); assay: co-IP
[2] = biological target: HA-tagged MAVS, full length (pcDNA3.1-MAVS-HA) (UniProt Q7Z434); assay: co-IP

B1: Mfn2(HR1)-Flag, 4,3 hydrophobic heptad repeat (HR1) region of Mfn2 (amino acid residues 369-598) (domain or fragment, UniProt O95140 369-598)
chain: AEAVRLIMDSLHMAAREQQVYCEEMREERQDRLKFIDKQLELLAQDYKLRIKQITEEVERQVSTAMAEEIRRLSVLVDDYQMDFHPSPVVLKVYKNELHRHIEEGLGRNMSDRCSTAITNSLQTMQQDMIDGLKPLLPVSVRSQIDMLVPRQCFSLNYDLNCDKLCADFQEDIEFHFSLGWTMLVNRFLGPKNSRRALMGYNDQVQRPIPLTPANPSMPPLPQGSLTQEE
binding [1]: binds
binding [2]: binds
